For one molecule, binding results are on record in patent US20220056104A1 (Janssen / Centocor, published 2022).

The assay has as its target T1, Recombinant DR3-Fc (R&D Systems, cat. #943-D3) (UniProt Q93038).
T1 sequence (looked up): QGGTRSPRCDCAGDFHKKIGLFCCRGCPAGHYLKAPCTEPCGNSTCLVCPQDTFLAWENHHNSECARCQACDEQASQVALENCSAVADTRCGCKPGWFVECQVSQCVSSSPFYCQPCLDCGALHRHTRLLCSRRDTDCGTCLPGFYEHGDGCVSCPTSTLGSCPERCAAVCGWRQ
Kind of assay: ELISA (FIG. 8C). Background: An ELISA detects its analyte on a solid surface through an enzyme-linked reagent.

Results are given in words; binding and its absence hold for the method and conditions named. Some binding calls cover weakened binding; strength is not graded here. Sequences can lack the tags named with a protein.

B1: TL1A N133Q (ligand)
chain: LKGQEFAPSHQQVYAPLRADGDKPRAHLTVVRQTPTQHFKNQFPALHWEHELGLAFTKNRMQYTNKFLLIPESGDYFIYSQVTFRGMTSECSEIRQAGRPNKPDSITVVITKVTDSYPEPTQLLMGTKSVCEVGSNWFQPIYLGAMFSLQEGDKLMVNVSDISLVDYTKEDKTFFGAFLL
For the molecule B1, the binding entry is “binds”.
